Data: the supplement of paper PMC12889115
The list shows a part of the results. These are raw signals, not scaled to a control.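 Primary screen: polymyxin B was added at a level permeabilizing Salmonella outer membranes while sparing inner membranes. DMSO wells, both with and without polymyxin B, established maximum growth. Plate-to-plate variation meant each plate was ranked on its own, and the lowest-OD600 compounds were selected as hits.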

Test system: Salmonella enterica serovar Typhimurium SL1344
Experiment: bacterial growth OD600 after 18 h with compound and polymyxin B; higher = more bacterial growth (less inhibition)
Conditions: 50 µM, Mueller-Hinton broth

| Compound | bacterial growth OD600 (polymyxin B 1 µg/mL) | bacterial growth OD600 (polymyxin B 0.75 µg/mL) |
| --- | --- | --- |
| CCOC(=O)C1(CCc2ccccc2)CCN(C(=O)c2ccc(COC)o2)CC1 | 0.602 |  |
| COc1ccc(CN2C(=O)O[C@@H]3CN(Cc4ccccn4)C[C@@H]32)cc1OC | 1.14 |  |
| COC(=O)C1CCN(C(=O)c2cc(NC(=O)CC3CCCC3)cc3nc(C4CCCO4)n(C)c23)CC1 (centres undefined) |  | 0.776 |
| CCOC(=O)c1n[nH]cc1CN1CCCC(Cc2ccccc2)(C(=O)OCC)C1 (centres undefined) | 0.922 |  |
| COC(=O)[C@@H]1CCCN1C(=O)c1ccc(OC2CCN(Cc3ccccn3)CC2)cc1 |  | 0.952 |
| CC(C)c1cc(C(=O)N2CCc3onc(-c4ccccc4F)c3C2)nc(N)n1 |  | 0.664 |
| O=C(NCc1cccnc1)C1CCN(C2CCN(C/C=C/c3ccccc3)CC2)CC1 | 0.884 |  |
| Cc1ccc(-n2cccn2)c(CNC2COc3ccccc3C2)c1 (centres undefined) | 1.1 |  |
| O=C(C1CCCC1)N1CCC(C2CCN(Cc3ccc(Cl)cc3)C2)CC1 (centres undefined) |  | 0.69 |
| O=C(NCC1CCCN(Cc2nc(-c3ccccc3)cs2)C1)c1ccc2c(c1)OCO2 (centres undefined) | 0.805 |  |
| CCN1CCN(C2(C(=O)NCCC3CCCN3C)Cc3ccccc3C2)CC1 (centres undefined) |  | 0.789 |
| CN(C(=O)c1cccc(N2CCNC2=O)c1)C1CCCN(CCc2ccccc2)C1 (centres undefined) | 1.23 |  |
| Clc1ccccc1OC1CCN(Cc2nc(-c3ccccc3)no2)CC1 | 0.645 |  |
| Cc1oc(-c2ccc(NC(=O)Cc3ccccc3)cc2)nc1CNC(=O)Cn1ncc2ccccc21 |  | 0.835 |
| CC(=O)N1CCCN(C2CCN(c3ccc(NC(=O)CCc4ccccc4)cc3)CC2)CC1 |  | 0.811 |
| COc1ccc(CCN2CC(NC(C)=O)CC2=O)cc1 (centres undefined) | 0.922 |  |
| CCCn1cc(CN2C[C@H]3OC(=O)N(CCc4ccccn4)[C@H]3C2)c(C)n1 |  | 0.957 |
| COc1cccc(CNC2CCN(c3ccc(C(=O)NC(C)c4ccccc4)cc3)CC2)c1OC (centres undefined) |  | 0.781 |
| COc1ccc2c(c1)-c1nc(-n3ncc(C(=O)N4CCN(C5CCCC5)CC4)c3C)ncc1CC2 |  | 0.795 |

Pulled one by one from above (2):

| Compound | bacterial growth OD600 (polymyxin B 1 µg/mL) | bacterial growth OD600 (polymyxin B 0.75 µg/mL) |
| --- | --- | --- |
| CN(C(=O)c1cccc(N2CCNC2=O)c1)C1CCCN(CCc2ccccc2)C1 (centres undefined) | 1.23 |  |
| COc1ccc(CN2C(=O)O[C@@H]3CN(Cc4ccccn4)C[C@@H]32)cc1OC | 1.14 |  |
